Primary screen of a compound library

Amino acid sequences for entries named in this document (tags omitted).
UniProt I6X8D2, whole entry: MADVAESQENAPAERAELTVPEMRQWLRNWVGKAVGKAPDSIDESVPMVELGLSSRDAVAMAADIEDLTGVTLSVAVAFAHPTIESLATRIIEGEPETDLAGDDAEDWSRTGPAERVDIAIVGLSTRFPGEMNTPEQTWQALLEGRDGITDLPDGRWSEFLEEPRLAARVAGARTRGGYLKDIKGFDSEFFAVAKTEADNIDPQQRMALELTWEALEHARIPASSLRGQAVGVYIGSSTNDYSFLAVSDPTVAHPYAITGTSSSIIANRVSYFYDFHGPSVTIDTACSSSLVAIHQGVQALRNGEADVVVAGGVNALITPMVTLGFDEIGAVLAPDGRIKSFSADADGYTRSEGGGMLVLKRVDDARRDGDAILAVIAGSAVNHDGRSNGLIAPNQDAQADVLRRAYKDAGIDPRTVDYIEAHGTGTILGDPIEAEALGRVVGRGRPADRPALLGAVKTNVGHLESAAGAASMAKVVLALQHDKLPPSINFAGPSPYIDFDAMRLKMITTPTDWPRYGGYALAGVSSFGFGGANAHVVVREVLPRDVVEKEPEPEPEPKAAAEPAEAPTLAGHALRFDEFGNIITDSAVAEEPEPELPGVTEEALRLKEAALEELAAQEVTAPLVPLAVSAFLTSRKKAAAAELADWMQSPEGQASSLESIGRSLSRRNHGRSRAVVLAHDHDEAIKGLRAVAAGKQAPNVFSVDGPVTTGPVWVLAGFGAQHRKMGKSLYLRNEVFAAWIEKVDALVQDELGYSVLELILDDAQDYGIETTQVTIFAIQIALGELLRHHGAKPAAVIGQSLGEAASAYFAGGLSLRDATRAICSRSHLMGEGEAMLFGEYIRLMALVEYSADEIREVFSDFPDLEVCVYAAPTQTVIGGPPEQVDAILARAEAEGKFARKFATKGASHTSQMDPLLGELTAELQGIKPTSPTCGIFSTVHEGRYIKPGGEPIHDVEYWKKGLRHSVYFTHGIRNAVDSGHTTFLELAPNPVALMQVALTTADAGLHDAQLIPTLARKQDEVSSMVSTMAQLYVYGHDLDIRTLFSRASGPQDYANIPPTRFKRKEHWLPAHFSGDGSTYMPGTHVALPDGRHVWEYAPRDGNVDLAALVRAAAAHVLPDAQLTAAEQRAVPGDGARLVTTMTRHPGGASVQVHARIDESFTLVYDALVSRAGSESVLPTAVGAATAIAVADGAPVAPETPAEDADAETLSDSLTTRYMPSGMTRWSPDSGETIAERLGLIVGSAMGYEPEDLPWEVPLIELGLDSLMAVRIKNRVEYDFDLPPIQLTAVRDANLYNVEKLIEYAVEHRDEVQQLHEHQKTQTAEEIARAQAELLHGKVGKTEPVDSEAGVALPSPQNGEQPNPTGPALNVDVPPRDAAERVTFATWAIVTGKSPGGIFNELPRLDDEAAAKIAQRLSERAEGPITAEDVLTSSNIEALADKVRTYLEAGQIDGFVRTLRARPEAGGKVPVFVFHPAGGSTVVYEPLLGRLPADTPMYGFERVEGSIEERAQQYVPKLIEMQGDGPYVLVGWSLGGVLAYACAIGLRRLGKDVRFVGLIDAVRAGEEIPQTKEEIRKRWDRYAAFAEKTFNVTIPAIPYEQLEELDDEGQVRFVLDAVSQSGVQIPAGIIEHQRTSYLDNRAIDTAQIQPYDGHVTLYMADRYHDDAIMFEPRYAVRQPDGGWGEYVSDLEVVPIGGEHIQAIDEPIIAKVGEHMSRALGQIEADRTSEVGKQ

Measurements from “University of Dundee, Small-Polar-MMV Screening Library” (2021), ChEMBL document CHEMBL3988442.

Results are given as percent effect. How 0% and 100% were set is not recorded. Most values in the screen are low, and negative values occur. This is an unselected part of the compounds tested.

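Polyketide synthase Pks13, Mycobacterium tuberculosis (UniProt I6X8D2). Enzyme assay of the thioesterase domain of polyketide synthase 13; the read-out is not stated. Tested at 30 µM. The record gives no direction; the compounds picked for IC50 retests had high values, so higher reads as stronger inhibition. Size under these conditions: about 67,000 compounds, about 300 of them at 50% or above in at least one test.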

SMILES,effect
NC(=O)C(CNC(=O)Cc1ccc(F)cc1)Cc1ccc(F)cc1 (stereo not shown),-28.45%
NCCc1cn(Cc2ccccn2)c2ccccc12,8.942%
CCC1CN(C(=O)c2ccccc2N(C)C)CCN1C(C)C (stereo not shown),1.472%
c1ccc(-c2nnc3ccc(N4CCC5(CCOC5)C4)nn23)cc1 (stereo not shown),-3.997%
CN1CCN(C(=O)[C@@H]2C[C@@H]3CCN(c4cccc(F)c4)C[C@H]3O2)CC1,-698%
CCN(Cc1nc2c(cnn2C)c(=O)[nH]1)c1ccc(OC)c(OC)c1,-3.946%
Cc1[nH]c(=O)[nH]c(=O)c1CC(=O)N1CCCN(CC2CC2)C(C(C)C)C1 (stereo not shown),-5.663%
CNC(=O)CS(=O)(=O)C1CCN(S(=O)(=O)c2c(F)cccc2F)CC1,-4.69%
CC(C)(C)c1c[nH]c([C@@H]2COCCN2C2CCNCC2)n1,-24.74%
CC(C#N)CSc1ccccc1NCC(=O)NCc1ccccc1 (stereo not shown),0.3127%
O=C1CC2(CCN(CCO)CC2)CN1Cc1cc(F)cc(F)c1,-18.45%
CC(O)(CNS(=O)(=O)Cc1ccon1)c1ccsc1 (stereo not shown),-3.971%
Cc1cc(C)c2c(N3CCC(O)(Cn4ccnc4)CC3)ncnc2n1,-27.28%
Cn1cc(C[C@H]2[C@H](O)CCN2CC2CCOCC2)cn1,-11.83%
c1cc(CO[C@@H]2CN(Cc3ccoc3)[C@@H]3CCCO[C@@H]32)ccn1,-12.79%
COc1cc(OC)cc(C(=O)N2CCOCC2c2[nH]ncc2C)c1 (stereo not shown),-6.403%
COCCCC1(CO)CCCN(CCOC)C1 (stereo not shown),-1.031%
CN1CCO[C@H]2CN(S(=O)(=O)c3ccc(C#N)cc3)C[C@H]21,-7.61%
CC(=O)N1CCCC1c1nnn2cc(-c3ccncc3)ccc12 (stereo not shown),-29.44%
COc1ccc(S(=O)(=O)C(C)C(=O)NCCOc2cccc(C)c2)cc1 (stereo not shown),11.87%
CCOc1cc(CNCCCn2ccnc2)cc(Cl)c1OCC,-16.46%
CCSCC(C)NCc1cc(-c2ccco2)on1 (stereo not shown),-6.292%
Cc1cc(CN2CCN(C(C)c3nc(C4CC4)no3)CC2)no1 (stereo not shown),-5.026%
Cc1ccc(CN2CCc3c(CN(C)C)n[nH]c3C2)s1,-31.18%
Cc1noc([C@@]23CCO[C@@H]2CCN(C(=O)C2CCOCC2)C3)n1,-26.11%
CN(c1ccc(C(C)(C)C)cc1)S(=O)(=O)c1cc(C(=O)O)cs1,1.764%
Cn1c(CN2CCCC(N3CCCCCC3)C2)cc(=O)n(C)c1=O (stereo not shown),-14%
Cc1nc(Nc2cnccn2)cc(C2CCCN2C2CCOCC2)n1 (stereo not shown),0.6585%
Cc1cc(N2CCC(c3nnc(CN(C)C)n3C3CC3)CC2)ccn1,-10.2%
CN(Cc1ccccc1)CC(O)Cn1cnc2c(Cl)cc(Cl)cc2c1=O (stereo not shown),-13.31%
COc1ccc(C(CC(=O)NCc2n[nH]c(N)n2)c2ccccc2)cc1 (stereo not shown),-29.13%
O=C(NCC1CC1)[C@@H]1CCO[C@@H]2CCN(Cc3ccsc3)C[C@H]21,-6.401%
O=C(Nc1ccc2c(c1)OCCO2)N1CCCC1c1ccco1 (stereo not shown),-6.65%
COCC1CC2(CCN(C(=O)c3occc3C)CC2)CO1 (stereo not shown),-6.374%
CCOC(=O)[C@@H]1[C@@H](c2ccccc2)CN2CCN(C(=O)N(C)C)C[C@H]12,-2.037%
COc1ccc(-c2cccc(-c3ccn(CCCN(C)C)n3)c2)nn1,2.714%
O=C(CCNC(=O)c1cnccn1)Nc1ncc[nH]1,-37.68%
COc1ccc2c(c1)[C@@H](CCNC(C)=O)CC(C)(C)O2,2.319%
Cc1cnc(CN2CCCC2c2noc(C(C)C)n2)cn1 (stereo not shown),-3.394%
Cc1cc(O)nc(C2CN(CCO)CCO2)n1 (stereo not shown),-0.1416%
CC(C)CN1CC(c2nc(-c3ccsc3)c[nH]2)CC1=O (stereo not shown),-16.26%
CC(NC1(CNC(=O)CC2CCCC2)CCOCC1)c1ccccc1 (stereo not shown),-12.83%
Cc1cc(=O)n2c3c(cc(S(=O)(=O)NC4CC4)cc13)CCC2,-15.57%
NCC(c1ccc(Cl)cc1)N1CCc2sccc2C1 (stereo not shown),-40.32%
O=C(c1cnccn1)N1CCN(Cc2cscn2)CC1,-10.37%
CCn1ncc2c1CCCC2NCc1ccc(OC)c(F)c1 (stereo not shown),-2.328%
Cc1cc(C)n(C2CCCN(C(=O)CCOc3cccc(F)c3)C2)n1 (stereo not shown),-9.47%
CCCNC(=O)c1c(-n2cnnn2)sc2c1CCC2,-19.96%
CC(C)C(NC(=O)c1ccc(Cl)cc1Cl)C(=O)Nc1ccn(C)n1 (stereo not shown),-15.81%
CCOCCC(=O)NC(c1noc(C)n1)c1ccccc1F (stereo not shown),-4.514%
C[C@@H]1C(=O)NC[C@H]2CN(Cc3ccc4c(c3)OCO4)C[C@H]21,-16.74%

Some entries from above, unchanged:

SMILES	effect
COc1ccc(-c2cccc(-c3ccn(CCCN(C)C)n3)c2)nn1	2.714%
Cc1ccc(CN2CCc3c(CN(C)C)n[nH]c3C2)s1	-31.18%
Cc1cc(=O)n2c3c(cc(S(=O)(=O)NC4CC4)cc13)CCC2	-15.57%
CCSCC(C)NCc1cc(-c2ccco2)on1 (stereo not shown)	-6.292%
CCN(Cc1nc2c(cnn2C)c(=O)[nH]1)c1ccc(OC)c(OC)c1	-3.946%
Cc1noc([C@@]23CCO[C@@H]2CCN(C(=O)C2CCOCC2)C3)n1	-26.11%